No constants are given. Whether binding was seen depends on the method and setting. Binding seen in cells or lysates may run through a third protein. Here binding means that the protein was enriched with, or labelled near, the bait; the list need not be complete.
Columns and labels:
[1] = target: 3xFLAG-tagged O-GlcNAc-deficient SOX2 S248A (3xF-SOX2^S248A) of fS248A-Tg mESCs (mouse) (UniProt P48432); assay: affinity purification with mass spectrometry; anti-FLAG M2 beads with nuclear extracts of fSOX2-Tg, fS248A-Tg and haSOX2-Tg (control) mESCs, 4 °C two hours; on-bead trypsin digest; label-free quantitation (MaxQuant LFQ)
[2] = target: 3xFLAG-tagged O-GlcNAc-deficient SOX2 S248A (3xF-SOX2^S248A) of fS248A-Tg mESCs (mouse) (UniProt P48432); assay: affinity purification with mass spectrometry; targeted analysis: two unique peptides for each NuRD component monitored (XICs) in anti-FLAG co-IPs of fSOX2-Tg and fS248A-Tg mESCs, three biological replicates

Protein sequences, listed by entry. Tags and fused reporters are not part of them. Lines headed by an entry give the natural chain unless they say otherwise; changes in a name come on top.
UniProt P48432: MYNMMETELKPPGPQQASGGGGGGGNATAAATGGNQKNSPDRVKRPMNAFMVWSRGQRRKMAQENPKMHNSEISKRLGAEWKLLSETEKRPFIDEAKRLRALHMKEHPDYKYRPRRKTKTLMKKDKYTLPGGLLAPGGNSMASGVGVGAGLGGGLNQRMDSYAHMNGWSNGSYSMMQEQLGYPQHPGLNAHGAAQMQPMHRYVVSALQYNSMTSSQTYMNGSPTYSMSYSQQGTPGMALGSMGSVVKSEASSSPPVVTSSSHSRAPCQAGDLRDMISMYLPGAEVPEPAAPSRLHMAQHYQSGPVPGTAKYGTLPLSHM
UniProt Q8VHR5: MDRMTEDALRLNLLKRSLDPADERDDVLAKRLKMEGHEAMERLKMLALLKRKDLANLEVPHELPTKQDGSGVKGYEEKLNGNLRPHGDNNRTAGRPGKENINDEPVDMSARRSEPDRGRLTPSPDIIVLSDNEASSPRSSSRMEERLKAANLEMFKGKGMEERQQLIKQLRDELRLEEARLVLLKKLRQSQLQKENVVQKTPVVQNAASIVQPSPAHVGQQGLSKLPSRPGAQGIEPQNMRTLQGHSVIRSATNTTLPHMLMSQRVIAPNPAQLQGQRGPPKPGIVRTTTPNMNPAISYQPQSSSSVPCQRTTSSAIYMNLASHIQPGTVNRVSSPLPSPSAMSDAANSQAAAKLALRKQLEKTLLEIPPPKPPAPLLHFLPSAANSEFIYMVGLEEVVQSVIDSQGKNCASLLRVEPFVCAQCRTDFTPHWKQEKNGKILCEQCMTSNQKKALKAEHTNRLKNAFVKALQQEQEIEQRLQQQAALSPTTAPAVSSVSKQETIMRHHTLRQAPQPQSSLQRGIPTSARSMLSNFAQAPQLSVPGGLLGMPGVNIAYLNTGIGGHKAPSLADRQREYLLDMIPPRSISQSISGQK
UniProt Q924K8: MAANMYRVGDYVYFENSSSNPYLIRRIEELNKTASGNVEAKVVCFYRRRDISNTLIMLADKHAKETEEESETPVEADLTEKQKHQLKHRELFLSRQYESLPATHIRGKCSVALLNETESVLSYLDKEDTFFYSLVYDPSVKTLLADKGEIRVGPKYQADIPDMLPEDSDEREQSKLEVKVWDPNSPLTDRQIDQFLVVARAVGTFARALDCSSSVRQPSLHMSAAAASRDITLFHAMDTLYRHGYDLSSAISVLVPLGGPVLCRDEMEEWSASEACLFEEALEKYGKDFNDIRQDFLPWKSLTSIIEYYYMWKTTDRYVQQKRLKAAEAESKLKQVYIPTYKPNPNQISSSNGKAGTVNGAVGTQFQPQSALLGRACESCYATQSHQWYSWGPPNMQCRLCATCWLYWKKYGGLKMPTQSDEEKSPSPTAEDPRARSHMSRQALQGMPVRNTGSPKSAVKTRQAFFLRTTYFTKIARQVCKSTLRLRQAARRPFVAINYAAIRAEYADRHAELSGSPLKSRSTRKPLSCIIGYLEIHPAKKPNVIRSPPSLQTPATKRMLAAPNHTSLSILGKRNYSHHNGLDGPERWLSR
UniProt P11103: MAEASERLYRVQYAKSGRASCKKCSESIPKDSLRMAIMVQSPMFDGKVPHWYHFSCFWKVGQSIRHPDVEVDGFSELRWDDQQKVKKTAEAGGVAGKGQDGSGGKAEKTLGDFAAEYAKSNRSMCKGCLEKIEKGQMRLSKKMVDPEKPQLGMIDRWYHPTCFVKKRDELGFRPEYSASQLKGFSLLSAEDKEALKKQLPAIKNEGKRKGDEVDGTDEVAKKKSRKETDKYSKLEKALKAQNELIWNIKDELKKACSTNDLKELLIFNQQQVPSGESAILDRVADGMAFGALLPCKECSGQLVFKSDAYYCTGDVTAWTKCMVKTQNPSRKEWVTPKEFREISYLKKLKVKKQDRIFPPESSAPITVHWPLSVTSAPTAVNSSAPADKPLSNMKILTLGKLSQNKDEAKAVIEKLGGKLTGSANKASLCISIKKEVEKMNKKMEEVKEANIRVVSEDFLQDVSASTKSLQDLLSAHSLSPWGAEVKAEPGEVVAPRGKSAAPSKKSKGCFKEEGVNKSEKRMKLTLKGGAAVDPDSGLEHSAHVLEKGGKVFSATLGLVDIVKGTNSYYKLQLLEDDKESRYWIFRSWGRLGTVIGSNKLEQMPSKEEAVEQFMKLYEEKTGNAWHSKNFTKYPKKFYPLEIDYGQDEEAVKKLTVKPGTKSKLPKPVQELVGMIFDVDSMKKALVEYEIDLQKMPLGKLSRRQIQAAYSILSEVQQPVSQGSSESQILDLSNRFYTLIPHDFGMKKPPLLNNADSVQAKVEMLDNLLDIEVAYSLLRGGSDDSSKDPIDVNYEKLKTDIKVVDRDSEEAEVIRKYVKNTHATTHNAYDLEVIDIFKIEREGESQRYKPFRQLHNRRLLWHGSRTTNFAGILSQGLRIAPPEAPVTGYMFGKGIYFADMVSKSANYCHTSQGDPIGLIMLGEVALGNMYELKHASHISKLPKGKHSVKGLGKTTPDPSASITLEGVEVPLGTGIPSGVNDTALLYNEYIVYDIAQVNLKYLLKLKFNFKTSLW
UniProt Q3TKT4: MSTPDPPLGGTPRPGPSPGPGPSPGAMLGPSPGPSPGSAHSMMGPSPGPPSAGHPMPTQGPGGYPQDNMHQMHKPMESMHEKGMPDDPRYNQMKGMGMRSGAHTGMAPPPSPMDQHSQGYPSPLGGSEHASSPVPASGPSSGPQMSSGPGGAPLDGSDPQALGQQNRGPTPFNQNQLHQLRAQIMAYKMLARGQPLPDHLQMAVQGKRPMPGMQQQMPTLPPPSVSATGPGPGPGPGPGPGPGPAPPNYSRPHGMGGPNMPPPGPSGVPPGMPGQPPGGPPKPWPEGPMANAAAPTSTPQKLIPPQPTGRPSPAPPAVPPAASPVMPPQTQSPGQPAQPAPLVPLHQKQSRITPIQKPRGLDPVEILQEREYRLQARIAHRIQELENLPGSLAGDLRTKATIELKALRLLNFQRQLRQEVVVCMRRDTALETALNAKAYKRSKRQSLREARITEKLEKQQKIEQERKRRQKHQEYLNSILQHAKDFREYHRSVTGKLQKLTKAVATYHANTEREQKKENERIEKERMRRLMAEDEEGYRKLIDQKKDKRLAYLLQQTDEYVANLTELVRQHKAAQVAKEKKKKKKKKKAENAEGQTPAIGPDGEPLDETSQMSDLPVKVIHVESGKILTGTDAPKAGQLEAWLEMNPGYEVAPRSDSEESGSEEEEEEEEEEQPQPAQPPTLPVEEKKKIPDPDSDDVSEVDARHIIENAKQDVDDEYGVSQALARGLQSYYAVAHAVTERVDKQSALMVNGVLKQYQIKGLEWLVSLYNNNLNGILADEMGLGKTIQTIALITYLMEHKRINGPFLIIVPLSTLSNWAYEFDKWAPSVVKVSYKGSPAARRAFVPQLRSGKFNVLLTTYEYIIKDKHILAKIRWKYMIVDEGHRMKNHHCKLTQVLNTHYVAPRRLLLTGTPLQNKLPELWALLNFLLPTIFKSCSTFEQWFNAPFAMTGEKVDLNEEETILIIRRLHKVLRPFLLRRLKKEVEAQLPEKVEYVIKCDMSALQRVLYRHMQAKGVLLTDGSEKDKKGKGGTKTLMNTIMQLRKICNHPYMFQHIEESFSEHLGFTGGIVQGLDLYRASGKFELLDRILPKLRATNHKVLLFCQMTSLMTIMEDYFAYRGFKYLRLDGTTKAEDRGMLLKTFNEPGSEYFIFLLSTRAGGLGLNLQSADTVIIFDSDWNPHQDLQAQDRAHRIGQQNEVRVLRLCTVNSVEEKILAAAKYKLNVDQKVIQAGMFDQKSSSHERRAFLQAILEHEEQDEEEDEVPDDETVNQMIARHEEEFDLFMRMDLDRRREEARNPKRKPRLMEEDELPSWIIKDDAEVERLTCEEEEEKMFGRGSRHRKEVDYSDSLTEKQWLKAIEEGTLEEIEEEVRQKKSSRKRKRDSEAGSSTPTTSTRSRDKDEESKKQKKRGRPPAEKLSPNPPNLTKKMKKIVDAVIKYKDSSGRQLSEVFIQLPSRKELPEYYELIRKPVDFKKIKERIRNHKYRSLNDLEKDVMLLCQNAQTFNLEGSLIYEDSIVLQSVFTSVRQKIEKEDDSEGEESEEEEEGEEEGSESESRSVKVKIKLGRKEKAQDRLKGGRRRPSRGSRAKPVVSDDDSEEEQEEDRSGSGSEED

Row | Substance | binding [1] | binding [2]
1 | GATAD2B (mouse, endogenous in mESCs) (from UniProt Q8VHR5 1-594) | binds | –
2 | MTA3 (mouse, endogenous in mESCs) (from UniProt Q924K8 1-591) | binds | binds
3 | PARP1 (mouse, endogenous in mESCs) (from UniProt P11103 1-1013) | binds | –
4 | SMARCA4 (mouse, endogenous in mESCs) (from UniProt Q3TKT4 1-1613) | binds | –
